From article doi:10.1101/2023.12.08.570772
Substitutions are numbered along the chain they refer to. No constants are given. Whether binding was seen depends on the method and setting. In cells and extracts the contact can be indirect. A yes stands for co-enrichment or nearness to the bait. Other partners may have been found. For some assays here: A no says only that the protein was not detected with the bait. Tags and fused reporters may be left off the sequences shown.

Amino acid sequences for entries named in this document (tags omitted).
UniProt Q13263: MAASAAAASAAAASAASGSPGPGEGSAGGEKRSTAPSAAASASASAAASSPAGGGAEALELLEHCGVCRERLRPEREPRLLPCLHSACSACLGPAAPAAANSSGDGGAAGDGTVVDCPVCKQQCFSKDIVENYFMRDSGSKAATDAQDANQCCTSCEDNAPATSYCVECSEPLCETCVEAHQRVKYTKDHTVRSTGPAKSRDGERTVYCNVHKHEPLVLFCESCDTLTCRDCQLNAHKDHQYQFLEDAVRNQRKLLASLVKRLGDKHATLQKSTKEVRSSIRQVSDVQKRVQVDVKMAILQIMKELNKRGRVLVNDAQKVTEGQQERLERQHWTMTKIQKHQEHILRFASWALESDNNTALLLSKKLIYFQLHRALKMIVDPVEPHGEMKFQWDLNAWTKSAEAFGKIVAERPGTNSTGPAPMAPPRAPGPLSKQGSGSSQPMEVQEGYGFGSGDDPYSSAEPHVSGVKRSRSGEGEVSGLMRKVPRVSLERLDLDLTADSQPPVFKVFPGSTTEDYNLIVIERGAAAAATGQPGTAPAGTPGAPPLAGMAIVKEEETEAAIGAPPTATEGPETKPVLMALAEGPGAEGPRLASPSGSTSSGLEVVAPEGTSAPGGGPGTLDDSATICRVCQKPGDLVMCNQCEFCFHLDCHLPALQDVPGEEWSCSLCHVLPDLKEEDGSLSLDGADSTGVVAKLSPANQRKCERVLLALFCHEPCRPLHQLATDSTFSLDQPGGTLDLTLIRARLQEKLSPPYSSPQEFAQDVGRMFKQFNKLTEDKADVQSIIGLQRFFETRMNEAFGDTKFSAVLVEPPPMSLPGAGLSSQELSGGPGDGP

Columns and labels:
[1] = molecular target: T1, GFP-tagged MAGEC2 L318D (human) (UniProt Q9UBF1); experiment: affinity purification with mass spectrometry
T1 sequence: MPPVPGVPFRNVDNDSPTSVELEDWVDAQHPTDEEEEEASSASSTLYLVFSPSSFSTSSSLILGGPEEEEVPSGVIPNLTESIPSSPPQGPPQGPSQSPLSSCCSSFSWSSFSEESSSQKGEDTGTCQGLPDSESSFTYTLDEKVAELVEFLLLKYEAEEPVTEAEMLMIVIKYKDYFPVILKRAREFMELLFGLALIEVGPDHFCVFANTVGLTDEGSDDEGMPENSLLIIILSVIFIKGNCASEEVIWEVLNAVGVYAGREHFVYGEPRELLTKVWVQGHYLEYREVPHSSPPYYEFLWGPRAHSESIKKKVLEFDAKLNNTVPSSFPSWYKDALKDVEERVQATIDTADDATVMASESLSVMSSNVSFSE

[2] = molecular target: T2, GFP-tagged MAGEC2 WT (human) (UniProt Q9UBF1); experiment: affinity purification with mass spectrometry
T2 sequence: T1 sequence with D318L

Tripartite motif-containing protein 28 (TRIM28) (from UniProt Q13263 1-835) (enzyme)
binding [1]: no binding
binding [2]: binds
